Taken from: PubChem BioAssay AID1259405 (NCATS, 2018)
Test: 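Silenced genes that increase secreted GFP made by CHO cells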 (primary screen). System: Chinese hamster CHO-K1 ovary cells with stable secreted eGFP expression. Reagents: single siRNA against mouse genes, 0.8 pmol siRNA per well (2 µl of 400 nM stock). Time to read-out: 3 days. Read-out: 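Percent of the per-plate non-targeting control median for intracellular GFP per well by laser scanning cytometry and for cell viability by ATP luminescence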. Scale: GFP, % of control: higher = more GFP per well, higher productivity; viability (ATP), % of control: higher = more viable cells (more ATP). Rule for the call: 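Called active when intracellular GFP, relative to negative control, is at or above 120%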.
This is an unselected part of about 50,000 deposited reagents. About 4,000 of all reagents (8%) count as active. 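Mouse siRNA library applied to hamster cells; one well for each siRNA.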 The numbers tell different reagents against one gene apart. Reagent sequences are not shown.

no.	gene	reagent	GFP, % of control	viability (ATP), % of control	activity call
1	Plppr2	1	62.9	80.9	inactive
2	Plppr2	2	44.3	66.3	inactive
3	Plppr2	3	78.6	79.3	inactive
4	Coa7	1	68.6	51.1	inactive
5	Coa7	2	112	71.4	inactive
6	Coa7	3	90.7	120	inactive
7	Pdp2	1	62.9	51.4	inactive
8	Pdp2	2	77.8	63.3	inactive
9	Pdp2	3	115	82.7	inactive
10	Serf2	1	104	60.9	inactive
11	Serf2	2	54.4	41.4	inactive
12	Serf2	3	64.4	74.6	inactive
13	Prl3d1	1	60.3	67.2	inactive
14	Prl3d1	2	84.5	83.4	inactive
15	Prl3d1	3	94.2	73.5	inactive
16	Cyp4f14	1	80	82.9	inactive
17	Cyp4f14	2	110	93.7	inactive
18	Cyp4f14	3	94	81.9	inactive
19	Cwh43	1	41.1	39.8	inactive
20	Cwh43	2	57.2	69.5	inactive
21	Cwh43	3	137	104	active
22	Fscn3	1	75.5	74.2	inactive
23	Fscn3	2	81.7	75.5	inactive
24	Fscn3	3	103	69.4	inactive
25	Mfng	1	26.9	23.9	inactive
26	Mfng	2	108	130	inactive
27	Mfng	3	82.1	144	inactive
28	Or4f6	1	107	73.1	inactive
29	Or4f6	2	48.5	60.2	inactive
30	Or4f6	3	59.5	103	inactive
31	Tpd52	1	55.4	78	inactive
32	Tpd52	2	61.1	85.1	inactive
33	Tpd52	3	85.6	133	inactive
34	Prkd3	1	107	70	inactive
35	4732465J04Rik	1	117	98.6	inactive
36	4732465J04Rik	2	64.2	54.8	inactive
37	4732465J04Rik	3	97.3	90.3	inactive
38	Duox2	1	113	116	inactive
39	Duox2	2	112	67.6	inactive
40	Duox2	3	96.5	47.6	inactive
41	Isyna1	1	116	135	inactive
42	Isyna1	2	57.2	63.9	inactive
43	Isyna1	3	62.4	110	inactive
44	Psd2	1	29.6	23.7	inactive
45	Psd2	2	78.3	89.1	inactive
46	Psd2	3	102	94.2	inactive
47	Rab31	1	83	111	inactive
48	Rab31	2	93.9	103	inactive
49	Rab31	3	87.9	101	inactive
50	Hnrnpa1	1	81	65	inactive
51	Hnrnpa1	2	102	93.5	inactive
52	Hnrnpa1	3	61.1	69.1	inactive
53	Aebp2	1	92.9	94.9	inactive
54	Aebp2	2	85.6	91.1	inactive
55	Mterf2	1	106	107	inactive
56	Mterf2	2	72.1	82.8	inactive
57	Mterf2	3	39.1	32.1	inactive
58	Fh1	1	40.3	61.2	inactive
59	Fh1	2	65.6	90.5	inactive
60	Fh1	3	84.4	92	inactive
61	Npc1l1	1	72	60.8	inactive
62	Npc1l1	2	96.1	74.6	inactive
63	Npc1l1	3	0.0429	379	inactive
64	Ttll6	1	123	84.8	active
65	Ttll6	2	117	111	inactive
66	Ttll6	3	64.9	49.2	inactive
67	Ly6g6g	1	53.7	69.6	inactive
68	Ly6g6g	2	47.7	45.2	inactive
69	Ly6g6g	3	92.6	92	inactive
70	Mto1	1	102	81.8	inactive
71	Mto1	2	53.5	81.9	inactive
72	Mto1	3	107	64.3	inactive
73	Faim	1	70.5	75.7	inactive
74	Faim	2	61.6	61.7	inactive
75	Faim	3	88.2	51.4	inactive
76	Ticrr	1	83.7	44.4	inactive
77	Ticrr	2	80.3	71.4	inactive
78	Ticrr	3	156	116	active
79	Dedd	1	77.7	119	inactive
80	Dedd	2	68.9	85.7	inactive
81	Dedd	3	149	112	active
82	Prmt2	1	56.2	65	inactive
83	Prmt2	2	96.5	123	inactive
84	Prmt2	3	91.9	110	inactive
85	Tnfrsf17	1	76.3	110	inactive
86	Tnfrsf17	2	76.9	88.7	inactive
87	Tnfrsf17	3	113	75.3	inactive
88	Abcf1	1	41	33.1	inactive
89	Abcf1	2	79.4	63.4	inactive
90	Abcf1	3	86.9	84.7	inactive
91	Bhlhe41	1	87.6	67.3	inactive
92	Bhlhe41	2	65.6	56.3	inactive
93	Srxn1	1	108	82.8	inactive
94	Srxn1	2	89.6	96.5	inactive
95	Srxn1	3	64	52	inactive
96	Scube1	1	21.5	36	inactive
97	Scube1	2	119	106	inactive
98	Scube1	3	99.8	69.1	inactive
99	Spo11	1	109	82.5	inactive
100	Spo11	2	108	89.7	inactive
101	Dscc1	1	70.1	81.1	inactive
102	Dscc1	2	59.3	51	inactive
103	Dscc1	3	83.7	68.9	inactive
104	Or1i2	1	53.3	49.7	inactive
105	Or1i2	2	102	71.1	inactive
106	Or1i2	3	47.5	45.1	inactive
107	Or4a70	1	58.1	74.7	inactive
108	Or4a70	2	135	84.2	active
109	Or4a70	3	77.4	117	inactive

Hits, of those listed so far:
gene	reagent	GFP, % of control	viability (ATP), % of control	activity call
Cwh43	3	137	104	active
Ttll6	1	123	84.8	active
Ticrr	3	156	116	active
Dedd	3	149	112	active
Or4a70	2	135	84.2	active
